Experimental data from article PMC8131943.

Chains of the proteins cited; added tags and fusions are not shown. Lines headed by an entry give the natural chain unless they say otherwise; changes in a name come on top.
UniProt Q387F0: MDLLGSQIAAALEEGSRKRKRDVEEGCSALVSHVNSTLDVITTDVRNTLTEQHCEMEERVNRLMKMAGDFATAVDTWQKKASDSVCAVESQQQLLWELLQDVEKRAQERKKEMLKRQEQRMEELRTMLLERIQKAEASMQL
UniProt Q582U6: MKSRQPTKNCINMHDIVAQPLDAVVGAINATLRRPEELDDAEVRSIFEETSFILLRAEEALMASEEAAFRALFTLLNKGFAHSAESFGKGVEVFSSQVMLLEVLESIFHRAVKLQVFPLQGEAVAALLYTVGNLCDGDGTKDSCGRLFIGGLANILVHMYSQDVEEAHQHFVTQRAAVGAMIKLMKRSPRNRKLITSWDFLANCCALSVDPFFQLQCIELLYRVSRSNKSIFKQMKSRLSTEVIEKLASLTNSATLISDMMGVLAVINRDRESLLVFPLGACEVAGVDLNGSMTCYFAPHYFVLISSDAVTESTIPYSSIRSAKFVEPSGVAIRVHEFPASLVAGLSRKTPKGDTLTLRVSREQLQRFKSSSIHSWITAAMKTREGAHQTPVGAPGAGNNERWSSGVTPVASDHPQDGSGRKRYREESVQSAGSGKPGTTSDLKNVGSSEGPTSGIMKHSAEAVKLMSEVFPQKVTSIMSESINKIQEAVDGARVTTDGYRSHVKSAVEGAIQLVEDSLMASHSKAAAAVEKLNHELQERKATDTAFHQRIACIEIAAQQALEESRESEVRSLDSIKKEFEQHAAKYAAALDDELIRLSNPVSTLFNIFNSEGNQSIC
UniProt Q38FF3: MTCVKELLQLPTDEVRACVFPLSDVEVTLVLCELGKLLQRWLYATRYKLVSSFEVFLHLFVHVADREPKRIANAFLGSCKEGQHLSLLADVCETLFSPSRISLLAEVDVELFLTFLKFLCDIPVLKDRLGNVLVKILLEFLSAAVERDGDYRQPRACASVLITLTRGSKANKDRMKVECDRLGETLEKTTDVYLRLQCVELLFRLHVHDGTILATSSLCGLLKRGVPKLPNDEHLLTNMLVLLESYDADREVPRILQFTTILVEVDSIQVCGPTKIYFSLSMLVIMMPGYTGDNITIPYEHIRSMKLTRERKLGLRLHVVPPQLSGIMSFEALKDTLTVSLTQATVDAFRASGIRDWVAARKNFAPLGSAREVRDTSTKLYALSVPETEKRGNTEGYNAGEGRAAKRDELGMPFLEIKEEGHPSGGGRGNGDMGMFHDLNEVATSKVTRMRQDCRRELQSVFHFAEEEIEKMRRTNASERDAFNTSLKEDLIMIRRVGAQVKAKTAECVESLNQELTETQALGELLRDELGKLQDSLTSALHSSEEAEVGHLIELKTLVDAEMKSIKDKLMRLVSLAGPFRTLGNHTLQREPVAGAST

How the values were obtained:
[1] = target: KKT16 (Tb927.11.1000), 6xHis-tagged (Trypanosoma brucei) (UniProt Q387F0); experiment: pull-down; three subunits co-expressed in E. coli from a polycistronic vector (pBA202); purified through 6xHis-KKT16 with a Ni-NTA Fast Start Kit under native condition; Coomassie-stained gel
[2] = target: KKT16 (Tb927.11.1000), 6xHis-tagged (Trypanosoma brucei) (UniProt Q387F0); experiment: cross-linking; BS3 cross-linking mass spectrometry of the purified KKT16-17-18 complex (0.5 mg/ml) in 25 mM sodium phosphate pH 7.5, 250 mM NaCl, 5% glycerol, 125 mM imidazole, 0.25 mM TCEP; on ice for 60 min; cross-linked bands cut from the gel; pLink search; both purified
[3] = target: KKT17 (Tb927.3.2330) (Trypanosoma brucei) (UniProt Q582U6); experiment: as above

binding [1] | binding [2] | binding [3] | Substance
binds | binds | – | KKT17 (Tb927.3.2330) (from UniProt Q582U6)
binds | – | binds | KKT18 (Tb927.9.3800) (from UniProt Q38FF3)

These are yes or no findings as the source states them, for the method shown. A result given as binding can be weak or reduced; the word gives no strength. For some of these results: In cells and extracts the contact can be indirect.
